In the supplement of paper PMC10849652:
The other results are listed elsewhere or left out.

The chains behind the UniProt entries cited, without tags or fusion partners. Where a name states a change or a piece, a line headed by the entry shows the natural chain unless it says otherwise.
UniProt P34897: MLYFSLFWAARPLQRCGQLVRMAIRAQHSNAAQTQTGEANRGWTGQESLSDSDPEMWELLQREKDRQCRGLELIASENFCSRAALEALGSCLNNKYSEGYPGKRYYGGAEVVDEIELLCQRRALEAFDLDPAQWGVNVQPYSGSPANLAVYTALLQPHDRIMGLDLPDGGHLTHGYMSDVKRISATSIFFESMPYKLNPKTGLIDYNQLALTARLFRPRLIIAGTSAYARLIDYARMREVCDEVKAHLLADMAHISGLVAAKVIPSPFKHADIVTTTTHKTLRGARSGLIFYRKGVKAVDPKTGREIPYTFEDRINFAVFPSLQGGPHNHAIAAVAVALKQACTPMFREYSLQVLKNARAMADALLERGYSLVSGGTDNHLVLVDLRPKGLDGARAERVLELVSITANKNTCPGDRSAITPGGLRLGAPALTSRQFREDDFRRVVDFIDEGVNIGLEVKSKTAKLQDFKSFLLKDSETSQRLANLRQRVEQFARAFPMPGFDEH
UniProt Q13530: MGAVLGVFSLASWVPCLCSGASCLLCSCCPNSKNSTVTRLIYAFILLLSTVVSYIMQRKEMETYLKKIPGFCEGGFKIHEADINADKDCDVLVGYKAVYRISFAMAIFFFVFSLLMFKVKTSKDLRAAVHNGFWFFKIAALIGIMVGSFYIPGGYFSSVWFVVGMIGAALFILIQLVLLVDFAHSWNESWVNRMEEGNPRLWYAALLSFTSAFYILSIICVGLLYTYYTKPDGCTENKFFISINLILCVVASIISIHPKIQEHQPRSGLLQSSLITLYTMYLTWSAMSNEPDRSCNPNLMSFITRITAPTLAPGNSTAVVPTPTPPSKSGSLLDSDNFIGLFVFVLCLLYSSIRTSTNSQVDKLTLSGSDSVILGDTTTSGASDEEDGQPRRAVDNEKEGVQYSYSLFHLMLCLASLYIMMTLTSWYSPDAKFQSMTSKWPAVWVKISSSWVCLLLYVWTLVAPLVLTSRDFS
UniProt Q0GE19: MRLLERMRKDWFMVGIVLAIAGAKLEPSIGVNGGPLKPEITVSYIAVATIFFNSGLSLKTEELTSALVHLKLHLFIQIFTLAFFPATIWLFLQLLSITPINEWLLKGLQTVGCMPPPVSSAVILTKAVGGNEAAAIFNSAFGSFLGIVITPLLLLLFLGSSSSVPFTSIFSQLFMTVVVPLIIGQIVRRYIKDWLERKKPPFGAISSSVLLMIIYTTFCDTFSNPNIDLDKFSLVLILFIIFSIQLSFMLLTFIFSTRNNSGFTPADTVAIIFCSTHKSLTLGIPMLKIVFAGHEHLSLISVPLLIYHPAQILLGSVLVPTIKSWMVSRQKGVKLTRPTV
UniProt Q96ES7: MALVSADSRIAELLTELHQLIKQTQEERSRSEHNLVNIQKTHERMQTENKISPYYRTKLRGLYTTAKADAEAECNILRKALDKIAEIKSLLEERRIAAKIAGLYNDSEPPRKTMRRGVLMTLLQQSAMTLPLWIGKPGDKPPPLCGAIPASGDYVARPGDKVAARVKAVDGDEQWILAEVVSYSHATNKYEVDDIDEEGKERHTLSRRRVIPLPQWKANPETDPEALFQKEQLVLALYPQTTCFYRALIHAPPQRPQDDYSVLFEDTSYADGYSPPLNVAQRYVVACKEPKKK
UniProt Q8NBJ9: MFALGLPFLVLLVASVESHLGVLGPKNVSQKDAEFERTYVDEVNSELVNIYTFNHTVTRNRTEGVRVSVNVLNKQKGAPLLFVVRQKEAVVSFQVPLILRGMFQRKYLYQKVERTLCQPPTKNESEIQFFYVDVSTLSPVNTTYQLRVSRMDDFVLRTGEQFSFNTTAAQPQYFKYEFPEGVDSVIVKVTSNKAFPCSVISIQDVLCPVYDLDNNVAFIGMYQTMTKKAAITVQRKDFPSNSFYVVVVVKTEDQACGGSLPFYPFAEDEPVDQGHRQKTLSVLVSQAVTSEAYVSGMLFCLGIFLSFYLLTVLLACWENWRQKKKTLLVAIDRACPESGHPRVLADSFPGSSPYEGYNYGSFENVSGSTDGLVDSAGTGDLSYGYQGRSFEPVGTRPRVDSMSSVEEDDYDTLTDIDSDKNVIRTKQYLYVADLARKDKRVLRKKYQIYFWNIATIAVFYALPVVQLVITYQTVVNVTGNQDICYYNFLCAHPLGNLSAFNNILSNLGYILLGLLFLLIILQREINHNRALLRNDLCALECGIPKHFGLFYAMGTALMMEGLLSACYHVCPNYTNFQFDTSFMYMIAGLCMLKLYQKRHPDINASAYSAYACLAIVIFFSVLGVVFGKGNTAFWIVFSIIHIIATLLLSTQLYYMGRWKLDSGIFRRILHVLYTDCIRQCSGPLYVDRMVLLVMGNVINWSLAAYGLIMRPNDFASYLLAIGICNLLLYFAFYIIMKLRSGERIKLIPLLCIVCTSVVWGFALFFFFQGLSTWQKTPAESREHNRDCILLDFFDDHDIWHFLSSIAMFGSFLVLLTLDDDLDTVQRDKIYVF
UniProt Q8WUM9: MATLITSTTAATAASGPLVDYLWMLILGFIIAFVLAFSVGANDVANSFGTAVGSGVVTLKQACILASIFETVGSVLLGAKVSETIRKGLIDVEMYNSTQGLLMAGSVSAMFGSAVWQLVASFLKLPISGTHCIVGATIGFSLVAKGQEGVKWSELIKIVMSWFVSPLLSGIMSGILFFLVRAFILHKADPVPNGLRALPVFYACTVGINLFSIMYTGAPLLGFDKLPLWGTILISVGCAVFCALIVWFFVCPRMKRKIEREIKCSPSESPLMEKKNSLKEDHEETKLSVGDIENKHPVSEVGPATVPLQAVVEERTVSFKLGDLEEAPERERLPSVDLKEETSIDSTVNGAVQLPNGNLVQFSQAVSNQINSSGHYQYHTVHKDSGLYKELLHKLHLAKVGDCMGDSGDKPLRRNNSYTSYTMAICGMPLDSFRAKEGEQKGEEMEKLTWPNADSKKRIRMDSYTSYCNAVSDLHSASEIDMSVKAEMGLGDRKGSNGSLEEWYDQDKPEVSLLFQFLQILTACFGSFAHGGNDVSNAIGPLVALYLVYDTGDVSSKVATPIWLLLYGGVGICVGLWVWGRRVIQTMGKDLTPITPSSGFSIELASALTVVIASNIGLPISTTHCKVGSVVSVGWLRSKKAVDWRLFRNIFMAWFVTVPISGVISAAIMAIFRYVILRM
UniProt Q8WVK7: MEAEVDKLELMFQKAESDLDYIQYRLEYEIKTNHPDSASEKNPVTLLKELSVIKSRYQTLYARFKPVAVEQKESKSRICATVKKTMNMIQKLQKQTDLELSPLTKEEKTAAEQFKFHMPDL
UniProt Q7Z333: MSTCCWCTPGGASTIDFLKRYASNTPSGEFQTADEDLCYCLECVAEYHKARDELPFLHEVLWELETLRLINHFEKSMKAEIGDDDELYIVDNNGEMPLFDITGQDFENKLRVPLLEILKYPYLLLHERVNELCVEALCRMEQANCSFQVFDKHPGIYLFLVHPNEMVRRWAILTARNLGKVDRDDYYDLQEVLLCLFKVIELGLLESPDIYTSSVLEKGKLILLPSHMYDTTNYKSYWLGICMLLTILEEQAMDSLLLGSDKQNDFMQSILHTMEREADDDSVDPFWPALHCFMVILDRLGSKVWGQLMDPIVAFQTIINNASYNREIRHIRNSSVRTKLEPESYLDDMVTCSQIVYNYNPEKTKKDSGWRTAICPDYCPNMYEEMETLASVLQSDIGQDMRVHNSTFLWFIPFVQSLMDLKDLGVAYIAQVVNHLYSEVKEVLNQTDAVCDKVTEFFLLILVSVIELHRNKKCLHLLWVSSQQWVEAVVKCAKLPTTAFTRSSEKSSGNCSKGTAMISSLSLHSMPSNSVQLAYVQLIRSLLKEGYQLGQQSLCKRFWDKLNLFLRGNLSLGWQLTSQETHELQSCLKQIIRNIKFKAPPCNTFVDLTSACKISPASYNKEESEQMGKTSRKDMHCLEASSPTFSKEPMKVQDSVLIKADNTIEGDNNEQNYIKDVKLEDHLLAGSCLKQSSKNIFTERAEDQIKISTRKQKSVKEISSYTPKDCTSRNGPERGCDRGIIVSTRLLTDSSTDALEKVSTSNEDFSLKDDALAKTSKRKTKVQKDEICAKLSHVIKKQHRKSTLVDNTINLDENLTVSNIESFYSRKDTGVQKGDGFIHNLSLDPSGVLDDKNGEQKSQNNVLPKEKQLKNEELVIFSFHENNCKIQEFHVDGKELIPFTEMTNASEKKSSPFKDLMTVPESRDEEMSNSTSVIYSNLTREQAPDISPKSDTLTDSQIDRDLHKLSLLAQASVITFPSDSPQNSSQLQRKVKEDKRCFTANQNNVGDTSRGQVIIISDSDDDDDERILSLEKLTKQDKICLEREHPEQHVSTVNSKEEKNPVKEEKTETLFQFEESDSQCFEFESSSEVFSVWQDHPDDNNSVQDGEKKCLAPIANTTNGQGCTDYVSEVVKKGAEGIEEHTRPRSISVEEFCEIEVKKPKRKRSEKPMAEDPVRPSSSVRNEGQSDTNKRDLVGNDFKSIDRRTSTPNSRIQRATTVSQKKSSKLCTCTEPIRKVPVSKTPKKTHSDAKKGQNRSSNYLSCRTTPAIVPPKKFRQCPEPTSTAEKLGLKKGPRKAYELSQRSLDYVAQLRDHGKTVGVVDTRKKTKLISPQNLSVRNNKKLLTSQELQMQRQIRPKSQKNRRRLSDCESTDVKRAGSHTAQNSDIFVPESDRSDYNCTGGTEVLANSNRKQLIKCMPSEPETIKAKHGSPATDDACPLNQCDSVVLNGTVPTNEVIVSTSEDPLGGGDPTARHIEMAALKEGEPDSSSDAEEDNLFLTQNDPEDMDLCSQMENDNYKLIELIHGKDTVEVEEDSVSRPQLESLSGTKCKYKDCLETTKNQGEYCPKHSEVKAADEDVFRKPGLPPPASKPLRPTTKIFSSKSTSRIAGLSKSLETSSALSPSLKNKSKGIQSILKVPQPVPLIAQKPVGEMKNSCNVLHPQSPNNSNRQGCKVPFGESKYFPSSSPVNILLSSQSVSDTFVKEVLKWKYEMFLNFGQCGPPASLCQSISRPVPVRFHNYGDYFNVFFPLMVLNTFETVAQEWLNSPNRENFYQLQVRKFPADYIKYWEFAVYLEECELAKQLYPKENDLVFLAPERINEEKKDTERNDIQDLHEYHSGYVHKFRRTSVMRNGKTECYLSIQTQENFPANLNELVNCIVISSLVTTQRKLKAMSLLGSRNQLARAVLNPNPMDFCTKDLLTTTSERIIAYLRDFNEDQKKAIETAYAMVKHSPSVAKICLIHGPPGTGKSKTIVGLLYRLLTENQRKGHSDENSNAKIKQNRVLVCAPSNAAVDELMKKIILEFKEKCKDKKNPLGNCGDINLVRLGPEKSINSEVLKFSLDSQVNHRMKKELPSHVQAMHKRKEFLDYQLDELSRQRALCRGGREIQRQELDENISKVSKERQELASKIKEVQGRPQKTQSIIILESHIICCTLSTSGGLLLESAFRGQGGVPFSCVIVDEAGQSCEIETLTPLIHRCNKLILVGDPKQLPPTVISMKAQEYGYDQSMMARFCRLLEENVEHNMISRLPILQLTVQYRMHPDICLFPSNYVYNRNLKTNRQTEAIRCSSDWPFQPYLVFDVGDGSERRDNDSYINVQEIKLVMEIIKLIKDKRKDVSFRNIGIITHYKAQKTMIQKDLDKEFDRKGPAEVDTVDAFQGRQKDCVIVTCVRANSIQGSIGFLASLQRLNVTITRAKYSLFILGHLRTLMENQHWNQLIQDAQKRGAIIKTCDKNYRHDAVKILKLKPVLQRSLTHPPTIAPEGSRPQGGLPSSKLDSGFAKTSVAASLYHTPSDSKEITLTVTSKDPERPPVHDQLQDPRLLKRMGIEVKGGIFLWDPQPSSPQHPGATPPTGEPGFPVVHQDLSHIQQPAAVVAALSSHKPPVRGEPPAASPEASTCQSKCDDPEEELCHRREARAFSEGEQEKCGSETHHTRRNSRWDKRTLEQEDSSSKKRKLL
UniProt Q6NT16: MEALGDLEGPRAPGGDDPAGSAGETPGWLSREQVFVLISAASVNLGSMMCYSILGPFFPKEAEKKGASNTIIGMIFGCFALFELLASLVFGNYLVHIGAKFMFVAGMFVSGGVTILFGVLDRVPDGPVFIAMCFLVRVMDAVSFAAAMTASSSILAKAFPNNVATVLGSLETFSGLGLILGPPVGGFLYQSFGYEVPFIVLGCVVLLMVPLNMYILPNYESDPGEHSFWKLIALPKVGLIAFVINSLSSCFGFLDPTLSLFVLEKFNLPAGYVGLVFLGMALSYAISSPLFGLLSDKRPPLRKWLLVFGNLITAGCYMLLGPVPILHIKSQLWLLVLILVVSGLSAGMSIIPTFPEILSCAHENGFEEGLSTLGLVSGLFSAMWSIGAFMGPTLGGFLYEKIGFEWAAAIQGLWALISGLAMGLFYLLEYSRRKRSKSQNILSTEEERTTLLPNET
UniProt Q9NP50: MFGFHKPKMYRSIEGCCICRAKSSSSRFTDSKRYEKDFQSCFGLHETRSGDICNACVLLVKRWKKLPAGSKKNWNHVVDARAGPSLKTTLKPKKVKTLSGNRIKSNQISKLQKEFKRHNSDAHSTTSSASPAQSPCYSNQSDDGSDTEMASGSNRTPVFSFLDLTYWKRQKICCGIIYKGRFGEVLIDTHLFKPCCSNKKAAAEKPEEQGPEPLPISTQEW

Legend:
Test in all cases: log2 fold change, soluble protein after heating vs DMSO (PISA); higher = thermal stabilisation; K562 lysate, 10 uM; active = over 0.2 and 3.5 SD of the protein, either way, in both replicates (recomputed)
vemurafenib = compound: CCCS(=O)(=O)Nc1ccc(F)c(C(=O)c2c[nH]c3ncc(-c4ccc(Cl)cc4)cc23)c1F [vemurafenib]
Outline: (§1)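 Dounce homogenisation of K562 pellets in PBS pH 7.4 with 1 mM MgCl2 produced a crude extract, used at 1 mg/mL protein. Exposure to 10 μM compound lasted 30 min, and aliquots were then heated for 3 min across 48°C-58°C, pooled and brought to 0.5% NP-40 at 4°C. The supernatant after 21,000xg for 90 min was quantified by TMTpro 16plex LC-MS/MS with channel sums equalised. Duplicate values are given as log-two fold change in thermal stability relative to solvent controls.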

[1] = compound: CCCS(=O)(=O)Nc1ccc(F)c(C(=O)c2c[nH]c3ncc(Cl)cc23)c1F
Outline: as §1

barasertib = compound: CCN(CCCOc1ccc2c(Nc3cc(CC(=O)Nc4cccc(F)c4)[nH]n3)ncnc2c1)CCOP(=O)(O)O [barasertib]
Outline: as §1

[2] = compound: CC[C@@H]1C(=O)N(C)c2cnc(Nc3ccc(C(=O)NC4CCN(C)CC4)cc3OC)nc2N1C1CCCC1
Outline: as §1

volasertib = compound: CC[C@@H]1C(=O)N(C)c2cnc(Nc3ccc(C(=O)N[C@H]4CC[C@H](N5CCN(CC6CC6)CC5)CC4)cc3OC)nc2N1C(C)C [volasertib]
Outline: as §1

[3] = compound: CCn1c(C(=O)N(C2CC2)C2CC2)cc2c3c(ncn3C)c(Nc3cc(C)n(C)n3)nc21
Outline: as §1

[4] = compound: CCn1cc(-c2ccnc3[nH]c(-c4cccc(CN(C)C)c4)cc23)c(-c2ccc(NC(=O)N(C)C)cc2)n1
Outline: as §1

[5] = compound: CN1CCC(CNc2ccc3ncc(-c4cccc(OC(F)(F)F)c4)n3n2)CC1
Outline: as §1

saracatinib = compound: CN1CCN(CCOc2cc(OC3CCOCC3)c3c(Nc4c(Cl)ccc5c4OCO5)ncnc3c2)CC1 [saracatinib]
Outline: as §1

sotrastaurin = compound: CN1CCN(c2nc(C3=C(c4c[nH]c5ccccc45)C(=O)NC3=O)c3ccccc3n2)CC1 [sotrastaurin]
Outline: as §1

Row | Target | log2 fold change (vemurafenib) | log2 fold change [1] | log2 fold change (barasertib) | log2 fold change [2] | log2 fold change (volasertib) | log2 fold change [3] | log2 fold change [4] | log2 fold change [5] | log2 fold change (saracatinib) | log2 fold change (sotrastaurin)
1 | SHMT1 (UniProt P34896) | inactive: 0.015 | inactive: 0.023 | inactive: -0.009 | inactive: 0.005 | inactive: 0.016 | inactive: 0.013 | inactive: -0.031 | inactive: 0.036 | inactive: 0.024 | inactive: -0.016
2 | SH3BGRL2 (UniProt Q9UJC5) | inactive: -0.013 | inactive: 0.021 | inactive: 0.022 | inactive: 0.076 | inactive: 0.006 | inactive: -0.007 | active: 0.387 | inactive: -0.052 | inactive: 0.014 | inactive: 0.002
3 | SHMT2 (UniProt P34897) | inactive: -0.003 | inactive: 0.024 | inactive: -0.034 | inactive: -0.045 | inactive: 0.003 | inactive: 0.012 | inactive: -0.032 | inactive: 0.037 | inactive: -0.006 | inactive: -0.038
4 | SERINC3 (UniProt Q13530) | inactive: 0.05 | inactive: 0.074 | inactive: -0.02 | inactive: 0.039 | inactive: 0.066 | inactive: -0.05 | active: -0.443 | inactive: 0.224 | inactive: 0.052 | inactive: 0.081
5 | SLC10A7 isoform 1 (UniProt Q0GE19) | inactive: -0.024 | inactive: 0.014 | inactive: -0.07 | inactive: 0.138 | inactive: -0.023 | inactive: -0.03 | inactive: -0.177 | inactive: 0.144 | inactive: 0.075 | inactive: 0.027
6 | SGF29 (UniProt Q96ES7) | inactive: -0.127 | inactive: -0.021 | inactive: -0.05 | inactive: 0.132 | inactive: -0.079 | inactive: -0.01 | inactive: -0.098 | inactive: 0.016 | inactive: -0.004 | inactive: 0.014
7 | SIDT2 isoform 2 (UniProt Q8NBJ9) | inactive: 0.048 | inactive: 0.012 | inactive: 0.032 | inactive: 0.08 | inactive: 0.02 | inactive: -0.057 | inactive: 0.013 | inactive: -0.018 | inactive: 0.006 | inactive: -0.01
8 | SHFL (UniProt Q9NUL5) | inactive: -0.065 | inactive: 0.016 | inactive: 0.084 | inactive: 0.037 | inactive: 0.043 | inactive: 0.045 |  |  | inactive: 0.01 | inactive: 0.094
9 | SLC20A1 (UniProt Q8WUM9) | inactive: 0.099 | inactive: -0.004 | inactive: 0.009 | active: 0.416 | inactive: -0.028 | inactive: -0.061 | inactive: 0.153 | inactive: -0.013 | inactive: 0.063 | inactive: -0.006
10 | SKA2 (UniProt Q8WVK7) | inactive: 0 | inactive: 0.014 | inactive: 0.078 | inactive: 0 | inactive: -0.043 | inactive: 0.02 | inactive: -0.032 | inactive: -0.015 | inactive: 0.028 | inactive: -0.097
11 | SETX isoform 4 (UniProt Q7Z333) | inactive: -0.026 | inactive: -0.037 |  | inactive: 0.013 | inactive: -0.009 | inactive: -0.017 | inactive: 0.094 | inactive: -0.176 | inactive: 0.041 | inactive: 0.073
12 | SIX4 (UniProt Q9UIU6) |  | inactive: 0.039 | inactive: 0.145 | inactive: -0.095 | inactive: 0.092 | inactive: 0.02 | inactive: -0.063 | inactive: -0.008 |  | 
13 | SLC18B1 (UniProt Q6NT16) | inactive: -0.113 | inactive: -0.131 |  |  | inactive: 0.057 | inactive: -0.07 | inactive: -0.108 | inactive: 0.017 |  | inactive: -0.009
14 | SINHCAF (UniProt Q9NP50) | inactive: 0.09 |  |  |  |  | inactive: 0 | inactive: -0.051 | inactive: 0.057 | inactive: 0.106 | inactive: 0.052

Individual results from the list:
For log2 fold change [1], SLC10A7 isoform 1 (UniProt Q0GE19) is listed with inactive: 0.014
For log2 fold change [1], SKA2 (UniProt Q8WVK7) is listed with inactive: 0.014
